In patent publication US20240067751A1:
These are yes or no findings as the source states them, for the method shown. Some binding calls cover weakened binding; strength is not graded here.

By UniProt entry, the sequences of proteins in these tests, tags left out. Where a name states a change or a piece, a line headed by the entry shows the natural chain unless it says otherwise. Residues count along the entry.
UniProt O00187, residues 16-686: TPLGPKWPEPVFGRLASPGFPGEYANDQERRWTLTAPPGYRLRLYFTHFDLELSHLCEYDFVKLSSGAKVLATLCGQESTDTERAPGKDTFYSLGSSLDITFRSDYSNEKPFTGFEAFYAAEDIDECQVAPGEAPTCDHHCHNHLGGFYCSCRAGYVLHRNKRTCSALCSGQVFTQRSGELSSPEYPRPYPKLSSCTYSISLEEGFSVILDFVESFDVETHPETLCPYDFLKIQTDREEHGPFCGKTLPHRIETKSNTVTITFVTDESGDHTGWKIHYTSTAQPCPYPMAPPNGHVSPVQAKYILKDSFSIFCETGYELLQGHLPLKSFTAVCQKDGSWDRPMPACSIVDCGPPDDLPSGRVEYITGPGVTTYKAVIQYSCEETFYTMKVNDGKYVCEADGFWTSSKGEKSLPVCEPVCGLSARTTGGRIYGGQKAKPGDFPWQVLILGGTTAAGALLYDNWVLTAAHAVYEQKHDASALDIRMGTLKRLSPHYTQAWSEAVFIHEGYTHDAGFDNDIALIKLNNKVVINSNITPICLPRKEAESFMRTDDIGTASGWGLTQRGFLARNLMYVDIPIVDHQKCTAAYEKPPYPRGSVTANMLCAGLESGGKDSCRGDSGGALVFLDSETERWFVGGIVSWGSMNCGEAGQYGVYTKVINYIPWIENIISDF
UniProt Q91WP0: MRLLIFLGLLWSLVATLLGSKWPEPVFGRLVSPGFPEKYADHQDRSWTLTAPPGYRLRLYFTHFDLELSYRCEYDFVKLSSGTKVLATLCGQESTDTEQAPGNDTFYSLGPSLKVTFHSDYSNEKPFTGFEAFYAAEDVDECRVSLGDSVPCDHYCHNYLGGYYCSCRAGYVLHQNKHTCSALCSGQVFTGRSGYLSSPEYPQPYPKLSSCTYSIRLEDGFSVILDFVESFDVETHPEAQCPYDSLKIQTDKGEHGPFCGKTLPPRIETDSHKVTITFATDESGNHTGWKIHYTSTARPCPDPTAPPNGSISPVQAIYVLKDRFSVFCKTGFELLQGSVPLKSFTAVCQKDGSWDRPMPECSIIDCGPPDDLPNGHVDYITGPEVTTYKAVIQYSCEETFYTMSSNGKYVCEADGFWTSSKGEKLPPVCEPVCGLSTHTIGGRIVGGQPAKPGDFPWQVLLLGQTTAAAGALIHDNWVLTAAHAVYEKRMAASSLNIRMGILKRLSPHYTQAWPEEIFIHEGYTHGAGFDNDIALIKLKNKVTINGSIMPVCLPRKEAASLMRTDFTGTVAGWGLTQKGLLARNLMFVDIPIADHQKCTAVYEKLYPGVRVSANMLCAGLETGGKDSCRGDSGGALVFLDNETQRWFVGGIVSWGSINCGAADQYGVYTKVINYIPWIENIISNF

Experiments:
[1] = molecular target: MASP-2 in human serum (human) (UniProt O00187); assay: 'affinity assay' of the Fab expressed in E. coli, shown in FIG. 8
[2] = molecular target: human MASP-2 D4-6 recombinant protein (human) (UniProt O00187); assay: ELISA, coated antigen
[3] = molecular target: Cynomolgus monkey MASP-2 D4-6 recombinant protein (Cynomolgus monkey); assay: ELISA, coated antigen
[4] = molecular target: mouse MASP-2 D4-6 recombinant protein (mouse) (UniProt Q91WP0); assay: ELISA, coated antigen

B1: 28O14 S-A mutant (Ala102) Fab (Fab, V domains shown)
VH: QVQLQQSGTELARPGASVRMSCKASGYTFRSHTMHWVKQRPGQGLEWIGYINPSTGYINYNQKFKDKATLTADKSSSTAYMQLSSLTSEDSAVYYCARSNYAYYYGMDYWGQGTSVTVSS
VL: DIVMTQSHKFMSTSVGDRVTITCKASQDVNTAVAWYQQKPGQSPKLLIYSASYRYTGVPDRFTGSGSGTDFTFTISSLQAEDLAVYYCQQHYNIPLTFGAGTKLELK
With B1 the binding [1] was “binds”.

B2: chimeric antibody 4F18 (antibody, V domains shown)
VH: EVQLQESGPGLVKPSQSLSLACTVTGYSITSDYAWHWIRQFPGNKLEWMGFISYSGRTNYNPPLTSRISITRDTSKNQFFLQLNSVTTEDTATYYCARSYDYWFGYWGQGTLVTVSA
VL: NVLMTQTPLSLPVSLGDQASISCRSSQSLVHSNGNTYLEWYMQKPGQSPKLLIYTVSRRFSGVPDRFSGSGSGTDFTLKISRVEAEDLGVYYCFQGSHVPVTFGAGTKLELK
For B2, the binding [2] was “binds”, the binding [3] was “binds” and the binding [4] was “binds”.
